This passage reports binding results from patent US20130133090A1.

Protein sequences, listed by entry. Tags and fused reporters are not part of them. Residues count along the entry.
UniProt P12023, residues 18-770: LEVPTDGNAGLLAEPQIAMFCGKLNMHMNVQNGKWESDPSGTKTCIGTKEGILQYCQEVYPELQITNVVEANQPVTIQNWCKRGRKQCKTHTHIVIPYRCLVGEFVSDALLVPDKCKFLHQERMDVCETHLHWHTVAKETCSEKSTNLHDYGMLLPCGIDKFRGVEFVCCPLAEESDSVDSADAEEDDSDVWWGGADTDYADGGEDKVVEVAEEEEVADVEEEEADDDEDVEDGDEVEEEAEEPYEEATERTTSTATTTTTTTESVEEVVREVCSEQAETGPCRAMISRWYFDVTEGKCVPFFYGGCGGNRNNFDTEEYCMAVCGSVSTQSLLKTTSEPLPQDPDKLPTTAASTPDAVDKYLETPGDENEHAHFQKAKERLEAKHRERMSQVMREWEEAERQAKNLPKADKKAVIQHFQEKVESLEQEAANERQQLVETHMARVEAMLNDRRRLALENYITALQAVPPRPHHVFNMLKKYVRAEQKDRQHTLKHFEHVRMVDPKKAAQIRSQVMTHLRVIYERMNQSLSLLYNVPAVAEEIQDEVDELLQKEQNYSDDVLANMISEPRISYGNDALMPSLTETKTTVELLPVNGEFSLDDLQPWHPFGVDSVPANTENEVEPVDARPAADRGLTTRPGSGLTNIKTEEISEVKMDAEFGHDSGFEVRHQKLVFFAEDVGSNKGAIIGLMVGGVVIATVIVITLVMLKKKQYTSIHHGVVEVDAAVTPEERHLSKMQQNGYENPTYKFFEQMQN

Results are given in words; binding and its absence hold for the method and conditions named. In cells and extracts the contact can be indirect. Some binding calls cover weakened binding; strength is not graded here.

The target of test [1] is endogenous APP of mouse brain (mouse) (UniProt P12023). In words: co-immunoprecipitation from mouse brain membrane extracts with αBRI2, blot for APP.
For test [2] the target is unchanged. The experiment in a line: co-immunoprecipitation from mouse brain lysates with αBri2, blot for APP.

B1: mouse Bri2 protein (endogenous) (protein, UniProt O89051 1-266, looked up)
chain: MVKVTFNSALAQKEAKKDEPKSSEEALIVPPDAVAVDCKDPGDVVPVGQRRAWCWCMCFGLAFMLAGVILGGAYLYKYFALQPDDVYYCGLKYIKDDVILNEPSADAPAARYQTIEENIKIFEEDAVEFISVPVPEFADSDPANIVHDFNKKLTAYLDLNLDKCYVIPLNTSIVMPPKNLLELLINIKAGTYLPQSYLIHEHMVITDRIENVDNLGFFIYRLCHDKETYKLQRRETIRGIQKREASNCFTIRHFENKFAVETLICS
For B1, the binding entry in test [1] and in test [2] was “binds” throughout.
